The experiment addresses CD40 ligand (R&D Systems) (UniProt P29965). As to the kind of experiment: ELISA; solid phase assay; ligands coated on Costar 96-well HB plates (2 μg/ml, fibrinogen 1 μg/ml), post-coated with 0.5% PVP; GST-tagged I-domains 5 μg/ml in HBSS, 20 mM HEPES pH 7.4, 2 mM CaCl2, 2 mM MgCl2, 1 h at 37 °C; detected with HRP-labelled anti-GST; both purified. On the technique in general: In an ELISA, binding on a coated surface is turned into a signal by an enzyme label.

The chains behind the UniProt entries cited, without tags or fusion partners. Residues count along the entry.
UniProt P29965, residues 113-261: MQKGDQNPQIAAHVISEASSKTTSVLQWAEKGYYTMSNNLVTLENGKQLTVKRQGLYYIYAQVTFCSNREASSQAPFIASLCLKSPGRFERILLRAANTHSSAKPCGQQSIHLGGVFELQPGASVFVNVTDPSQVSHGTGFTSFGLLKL

Where a chain is given by its changes, count along the chain named. Numbers in names are those of the source. No constants are given. Whether binding was seen depends on the method and setting. Some results given as binding are weak or reduced against the parent protein; the word gives no strength. Tags and fused reporters may be left off the sequences shown.

B1: WT murine αMI-domain (S213 and R216), GST fusion protein (domain or fragment, UniProt P05555 148-334)
chain: ESDIVFLIDGSGSINNIDFQKMKEFVSTVMEQFKKSKTLFSLMQYSDEFRIHFTFNDFKRNPSPRSHVSPIKQLNGRTKTASGIRKVVRELFHKTNGARENAAKILVVITDGEKFGDPLDYKDVIPEADRAGVIRYVIGVGNAFNKPQSRRELDTIASKPAGEHVFQVDNFEALNTIQNQLQEKIFA
modifications: Alexa-488 label (only in the flow cytometry on platelets, Fig. 6c)
Consider B1, for which the binding result is reported as “binds”.

B2: S213A/R216A murine αMI-domain double mutant, GST fusion protein (domain or fragment, UniProt P05555 148-334)
chain: B1 chain with S82A, R85A
modifications: Alexa-488 label (only in the flow cytometry on platelets, Fig. 6c)
Regarding B2, the binding result is “binds”.

Values taken from article PMC5477519, “Leukocyte integrin Mac-1 regulates thrombosis via interaction with platelet GPIbα” (Nature Communications, 2017).
